PubChem BioAssay AID2685 (National Center for Advancing Translational Sciences (NCATS), 2010)
Some of the results follow. These are further read-outs of the screen, such as a control signal, another cell line or another target. No call is given for them. The list favours compounds with an active or inconclusive main result. The note in brackets gives the kind of curve behind each potency; many fits are weak.

Assay: qHTS Assay for Lipid Storage Modulators in Drosophila S3 Cells;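 as to cell number change: cells counted by Cell Tracker Red CMTPX staining in the red channel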
Conditions: BODIPY lipid droplet fluorescence, 18-24 h; for cell number change: measured here: cell count max response, cells fed with added oleic acid
Procedure, shortened: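 Drosophila S3 cells got compounds at several concentrations plus oleic acid (400 uM solution). Laser-scanning cytometry with 488 nm excitation read lipid droplets at 500-530 nm and cells at 575-640 nm. Percent activity was relative to 20 uM Triacsin C.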

[1] = measured here: lipid fluorescence (Fed channel) AC50, cells fed with added oleic acid
[2] = measured here: cell number channel AC50, cells fed with added oleic acid

| Structure (SMILES) | cell number change | AC50 [1] | AC50 [2] |
| --- | --- | --- | --- |
| O=C1C(=O)N(CCN2CCOCC2)C(c2cccc(Cl)c2)/C1=C(/O)c1ccc2c(c1)OCO2 (centres undefined) | 14% | 0.146 µM [falling, full curve, poor fit] | – |
| CC(C)CC[n+]1ccn(-c2nc3ccccc3nc2[N-]S(=O)(=O)c2ccccc2)c1 | -13.2% | 0.164 µM [falling, full curve, poor fit] | – |
| Cc1nc2ccc(S(=O)(=O)N(C)CC(=O)NCCc3ccccc3)cc2s1 | 16% | 0.0517 µM [rising, full curve, poor fit] | – |
| CC(=O)c1cccc(NC(=O)c2ccc(S(=O)(=O)N3CCCC3)cc2)c1 | 23.9% | 0.231 µM [falling, full curve, poor fit] | – |
| CCC(C)c1ccccc1N1CC(C(=O)NCCCn2nc(C)cc2C)CC1=O (centres undefined) | 21.8% | 0.116 µM [rising, full curve, poor fit] | 0.0517 µM [rising, full curve, poor fit] |
| CCOC(=O)C(CC)Sc1nc2c(c(=O)[nH]c(=O)n2C)n1CCc1ccccc1 (centres undefined) | -29% | – | – |
| COc1cccc(NC(=O)c2ccc(NC(=O)C3CC(=O)OC34CCCCC4)cc2)c1 (centres undefined) | 117% | – | 23.1 µM [rising, partial curve, poor fit] |
| CSc1nc(N2CCOCC2)c2c3c(sc2n1)CCC3 | -21.9% | – | – |
| O=C(/C=C/c1cccs1)N1CCN(c2ccccc2F)CC1 | -52.2% | 4.11 µM [falling, single point] | 0.517 µM [falling, full curve] |
| COc1ccc2c(CC(=O)Nc3nnc(C4CC4)s3)coc2c1 | – | 6.51 µM [rising, single point] | – |
| N#C/C(=C(/O)c1cccs1)c1nnc2n1CCCCC2 | -42.2% | 29.1 µM [falling, single point] | 8.2 µM [falling, partial curve] |
| CN(C)CCCn1c(NC(=O)C2CCCCC2)nc2ccccc21 | -14.6% | 1.03 µM [falling, full curve] | – |
| Cc1ccc(/C=C/C(=O)NC2CCS(=O)(=O)C2)cc1 (centres undefined) | 31% | 0.164 µM [rising, full curve, poor fit] | 3.26 µM [rising, full curve] |
| O=S(=O)(Nc1nccs1)c1ccc2c(c1)OCCO2 | -2.67% | 0.00461 µM [falling, full curve, poor fit] | – |
| Cc1nc2cc(-c3ccsc3-n3c(C)ccc3C)[nH]n2c(=O)c1Cl | 29.1% | 0.82 µM [falling, full curve] | – |
| CC(C)N1CC(COc2ccc(Cl)cc2Cl)OC1=O (centres undefined) | 22.2% | 2.31 µM [falling, partial curve] | – |
| CCc1cccc(NC(=O)CCC(=O)N2CCSc3ccccc32)c1 | 6.05% | – | – |
| CCOc1ccc(C(=O)CCN2CCCCCC2)cc1 | -35.2% | 16.4 µM [falling, partial curve] | 8.2 µM [falling, partial curve] |
| Cc1ccc2nc(NC(=O)CSCC(=O)OCC(=O)c3ccc(Br)cc3)sc2c1 | 37.1% | 13 µM [falling, partial curve, poor fit] | 29.1 µM [rising, single point] |

| Structure (SMILES) | cell number change | AC50 [1] | AC50 [2] |
| --- | --- | --- | --- |
| CCOC(=O)N/N=C(C)/C=C/c1ccccc1 | -3.18% | 2.31 µM [rising, partial curve] | – |
| COc1cc(Cl)c(C)cc1NC(=O)CSc1nnc(CCC(=O)O)c(=O)[nH]1 | 55.6% | 3.26 µM [falling, single point] | – |
| COc1ccc(CCNC(=O)c2cc(=O)[nH]c3ccccc23)cc1 | 8.57% | 10.3 µM [rising, partial curve] | – |
| CCc1ccccc1NC(=O)CNC(=O)c1ccc(-n2cncn2)c([N+](=O)[O-])c1 | -25% | 29.1 µM [falling, single point] | – |
| CCOc1[nH]n(-c2ccccc2)c(=O)c1C=Nc1ccc(OC)cc1 | 43.3% | – | – |
| O=c1c2c3c(sc2nc(N2CCNCC2)n1-c1cccc(Cl)c1)CCCCC3 | 19.6% | 6.51 µM [rising, full curve] | – |
| Cc1cc(CNC(=O)c2cc(Br)ccc2Cl)nn1C | – | – | 0.731 µM [rising, single point] |
| O=C(CSc1nnc(-c2cccnc2)n1Cc1ccco1)c1ccc(Cl)cc1 | -9.81% | – | – |
| CC1CCN(CCCOc2ccc(Cl)cc2Br)CC1 | 14.4% | 29.1 µM [rising, single point] | – |
| COC(=O)[C@H](CCSC)NC(=O)NCc1ccc(S(N)(=O)=O)cc1 | -0.324% | – | – |
| COc1cccc(C(=O)CSc2nnc(CNS(=O)(=O)c3ccc(C)cc3)n2C)c1 | – | – | 6.51 µM [falling, single point] |
| O=c1c2ccccc2n(Cc2cccc(F)c2)c(=O)n1C1CCCC1 | -20.9% | 29.1 µM [rising, single point] | – |
| CCOC(=O)Cn1cc(C#N)c(=O)[nH]c1=O | -35.8% | 4.61 µM [falling, full curve, poor fit] | 4.61 µM [falling, full curve, poor fit] |
| Cc1[nH]n(-c2cccc(Cl)c2)c(=O)c1-c1ccccc1 | -45.3% | 16.4 µM [falling, single point] | 9.2 µM [falling, partial curve, poor fit] |
| CCOc1cc(C(N)=O)cc(OCC)c1OCC | 2.72% | – | 0.651 µM [falling, partial curve, poor fit] |
| COC(=O)c1c(N2C(=O)[C@H]3[C@@H](C2=O)[C@]2(C(=O)Nc4c(C)cccc42)N2CCC[C@@H]32)sc(C)c1C | 0.643% | 6.51 µM [rising, single point] | – |
| O=C(COC(=O)c1cc2c(s1)CCCC2)NCc1ccccc1Cl | -28% | 29.1 µM [falling, single point] | – |
| Nc1nonc1-n1nnc(C(=O)N/N=C/c2ccccc2Cl)c1CSc1ccccc1 | 34.8% | 0.146 µM [rising, full curve, poor fit] | 0.146 µM [rising, full curve] |

Reprinted from the listing (nine entries):

| Structure (SMILES) | cell number change | AC50 [1] | AC50 [2] |
| --- | --- | --- | --- |
| CCOc1[nH]n(-c2ccccc2)c(=O)c1C=Nc1ccc(OC)cc1 | 43.3% | – | – |
| O=c1c2c3c(sc2nc(N2CCNCC2)n1-c1cccc(Cl)c1)CCCCC3 | 19.6% | 6.51 µM [rising, full curve] | – |
| Cc1cc(CNC(=O)c2cc(Br)ccc2Cl)nn1C | – | – | 0.731 µM [rising, single point] |
| O=C(CSc1nnc(-c2cccnc2)n1Cc1ccco1)c1ccc(Cl)cc1 | -9.81% | – | – |
| CC1CCN(CCCOc2ccc(Cl)cc2Br)CC1 | 14.4% | 29.1 µM [rising, single point] | – |
| COC(=O)[C@H](CCSC)NC(=O)NCc1ccc(S(N)(=O)=O)cc1 | -0.324% | – | – |
| COc1cccc(C(=O)CSc2nnc(CNS(=O)(=O)c3ccc(C)cc3)n2C)c1 | – | – | 6.51 µM [falling, single point] |
| O=c1c2ccccc2n(Cc2cccc(F)c2)c(=O)n1C1CCCC1 | -20.9% | 29.1 µM [rising, single point] | – |
| CCOC(=O)Cn1cc(C#N)c(=O)[nH]c1=O | -35.8% | 4.61 µM [falling, full curve, poor fit] | 4.61 µM [falling, full curve, poor fit] |
